From patent US20220249561A1
No constants are given. Whether binding was seen depends on the method and setting. Some results given as binding are weak or reduced against the parent protein; the word gives no strength.

Protein sequences, listed by entry. Tags and fused reporters are not part of them. Residues count along the entry.
UniProt Q9UM73, residues 19-1620: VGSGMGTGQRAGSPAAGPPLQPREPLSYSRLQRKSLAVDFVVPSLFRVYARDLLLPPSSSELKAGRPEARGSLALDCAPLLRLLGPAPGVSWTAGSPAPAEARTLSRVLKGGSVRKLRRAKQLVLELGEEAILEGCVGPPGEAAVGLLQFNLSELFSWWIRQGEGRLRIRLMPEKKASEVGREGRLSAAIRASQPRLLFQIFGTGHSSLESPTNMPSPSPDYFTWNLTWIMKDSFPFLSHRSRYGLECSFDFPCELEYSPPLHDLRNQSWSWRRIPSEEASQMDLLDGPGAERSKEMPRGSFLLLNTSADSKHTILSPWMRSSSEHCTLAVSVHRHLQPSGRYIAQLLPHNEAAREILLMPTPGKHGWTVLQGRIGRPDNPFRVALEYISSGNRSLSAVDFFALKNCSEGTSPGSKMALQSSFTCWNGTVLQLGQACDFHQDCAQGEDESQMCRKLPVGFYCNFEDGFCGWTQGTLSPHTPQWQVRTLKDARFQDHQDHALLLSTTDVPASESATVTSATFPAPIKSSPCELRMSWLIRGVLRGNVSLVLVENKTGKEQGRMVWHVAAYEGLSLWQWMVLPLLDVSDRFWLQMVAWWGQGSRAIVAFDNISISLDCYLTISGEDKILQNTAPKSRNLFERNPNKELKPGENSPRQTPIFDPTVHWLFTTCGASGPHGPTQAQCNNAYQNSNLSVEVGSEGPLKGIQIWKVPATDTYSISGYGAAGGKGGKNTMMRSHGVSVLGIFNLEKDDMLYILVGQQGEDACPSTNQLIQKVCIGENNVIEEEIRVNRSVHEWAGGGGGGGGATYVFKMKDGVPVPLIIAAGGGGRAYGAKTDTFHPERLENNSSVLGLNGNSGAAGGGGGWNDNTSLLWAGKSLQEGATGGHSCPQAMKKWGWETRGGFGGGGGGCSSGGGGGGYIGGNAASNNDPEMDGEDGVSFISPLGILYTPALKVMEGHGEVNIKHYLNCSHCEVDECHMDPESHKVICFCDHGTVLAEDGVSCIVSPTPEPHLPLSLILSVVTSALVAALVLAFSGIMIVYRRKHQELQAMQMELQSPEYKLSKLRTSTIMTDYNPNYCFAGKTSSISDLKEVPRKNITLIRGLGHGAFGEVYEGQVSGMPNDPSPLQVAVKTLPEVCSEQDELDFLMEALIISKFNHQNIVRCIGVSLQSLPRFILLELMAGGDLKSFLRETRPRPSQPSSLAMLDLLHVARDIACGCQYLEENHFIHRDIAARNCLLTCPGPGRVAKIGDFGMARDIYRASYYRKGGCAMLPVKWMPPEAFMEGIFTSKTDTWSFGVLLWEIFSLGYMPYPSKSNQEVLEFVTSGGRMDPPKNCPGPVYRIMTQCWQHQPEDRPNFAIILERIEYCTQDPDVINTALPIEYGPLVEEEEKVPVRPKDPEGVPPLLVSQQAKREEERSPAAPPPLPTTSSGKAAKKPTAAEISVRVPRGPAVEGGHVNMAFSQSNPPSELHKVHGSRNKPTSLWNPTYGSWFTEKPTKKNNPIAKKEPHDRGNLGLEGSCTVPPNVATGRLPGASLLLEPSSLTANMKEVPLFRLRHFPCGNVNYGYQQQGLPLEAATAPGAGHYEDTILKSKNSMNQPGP
UniProt P29376, residues 17-864: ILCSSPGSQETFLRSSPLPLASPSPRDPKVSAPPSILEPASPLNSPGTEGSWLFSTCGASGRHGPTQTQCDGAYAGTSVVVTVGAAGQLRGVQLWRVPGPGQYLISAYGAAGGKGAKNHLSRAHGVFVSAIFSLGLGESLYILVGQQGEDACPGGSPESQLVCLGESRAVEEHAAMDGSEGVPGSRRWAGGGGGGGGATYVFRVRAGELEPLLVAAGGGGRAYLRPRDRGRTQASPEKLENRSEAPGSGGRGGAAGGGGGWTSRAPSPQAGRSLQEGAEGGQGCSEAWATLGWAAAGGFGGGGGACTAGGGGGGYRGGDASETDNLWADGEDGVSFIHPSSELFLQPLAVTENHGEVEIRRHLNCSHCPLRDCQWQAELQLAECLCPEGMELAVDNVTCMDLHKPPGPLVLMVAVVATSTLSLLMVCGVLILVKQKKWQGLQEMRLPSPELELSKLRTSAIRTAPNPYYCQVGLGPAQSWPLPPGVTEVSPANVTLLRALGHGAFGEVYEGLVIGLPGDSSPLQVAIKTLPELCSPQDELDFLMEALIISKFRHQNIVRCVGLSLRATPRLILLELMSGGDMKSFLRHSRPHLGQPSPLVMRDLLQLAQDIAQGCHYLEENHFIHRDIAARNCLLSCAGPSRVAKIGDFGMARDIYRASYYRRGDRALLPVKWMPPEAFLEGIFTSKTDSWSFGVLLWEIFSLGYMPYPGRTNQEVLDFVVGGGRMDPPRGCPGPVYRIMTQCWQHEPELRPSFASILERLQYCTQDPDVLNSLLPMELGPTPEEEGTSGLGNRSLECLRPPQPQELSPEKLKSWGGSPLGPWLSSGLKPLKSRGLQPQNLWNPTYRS

Key:
ALK 001P [1] = assay: SPR, Biacore 8K
LTK 001P [2] = assay: SPR, Biacore 8K
ALK 001P [3] = assay: SPR, Biacore 8K; receptor-Fc captured on Protein A chip, ligand as analyte
LTK 001P [4] = assay: as above
[5] = target: ALK expressed on CHO-K1 clone A24 (UniProt Q9UM73); assay: flow cytometry; FAM150B-His protein on CHO-K1 clone A24, detected with PE anti-His tag antibody
[6] = target: LTK expressed on CHO-K1 clone L10 (UniProt P29376); assay: flow cytometry; FAM150B-His protein on CHO-K1 clone L10, detected with PE anti-His tag antibody
ALK 001P [7] = assay: SPR, Biacore 8K; ALK 001P captured on Protein A chip, ligand as analyte, 6 concentrations from 19.9 nM
LTK 001P [8] = assay: SPR, Biacore 8K; LTK 001P captured on Protein A chip, ligand as analyte, 6 concentrations from 19.9 nM

Measured: binding

B1: Ligand 002P (ligand)
chain: DGHHHHHHGSLQDSEVNQEAKPEVKPEVKPETHINLKVSDGSSEIFFKIKKTTPLRRLMEAFAKRQGKEMDSLTFLYDGIEIQADQTPEDLDMEDNDIIEAHREQIGGLEVLFQGPAEAAGLGPSPEQRVEIVPRDLRMKDKFLKHLTGPLYFSPKCSKHFHRLYHNTRDCTIPAYYKRCARLLTRLAVSPVCMEDKQ
binds: ALK 001P [1] | LTK 001P [2] | ALK 001P [3] | LTK 001P [4] | [5] | [6] | ALK 001P [7] | LTK 001P [8]
